# Assay results taken from PubChem BioAssay AID588590 (National Center for Advancing Translational Sciences (NCATS), 2011).
# By UniProt entry, the sequences of proteins in these tests, tags left out. Where a name states a change or a piece, a line headed by the entry shows the natural chain unless it says otherwise.
# UniProt Q9UNA4: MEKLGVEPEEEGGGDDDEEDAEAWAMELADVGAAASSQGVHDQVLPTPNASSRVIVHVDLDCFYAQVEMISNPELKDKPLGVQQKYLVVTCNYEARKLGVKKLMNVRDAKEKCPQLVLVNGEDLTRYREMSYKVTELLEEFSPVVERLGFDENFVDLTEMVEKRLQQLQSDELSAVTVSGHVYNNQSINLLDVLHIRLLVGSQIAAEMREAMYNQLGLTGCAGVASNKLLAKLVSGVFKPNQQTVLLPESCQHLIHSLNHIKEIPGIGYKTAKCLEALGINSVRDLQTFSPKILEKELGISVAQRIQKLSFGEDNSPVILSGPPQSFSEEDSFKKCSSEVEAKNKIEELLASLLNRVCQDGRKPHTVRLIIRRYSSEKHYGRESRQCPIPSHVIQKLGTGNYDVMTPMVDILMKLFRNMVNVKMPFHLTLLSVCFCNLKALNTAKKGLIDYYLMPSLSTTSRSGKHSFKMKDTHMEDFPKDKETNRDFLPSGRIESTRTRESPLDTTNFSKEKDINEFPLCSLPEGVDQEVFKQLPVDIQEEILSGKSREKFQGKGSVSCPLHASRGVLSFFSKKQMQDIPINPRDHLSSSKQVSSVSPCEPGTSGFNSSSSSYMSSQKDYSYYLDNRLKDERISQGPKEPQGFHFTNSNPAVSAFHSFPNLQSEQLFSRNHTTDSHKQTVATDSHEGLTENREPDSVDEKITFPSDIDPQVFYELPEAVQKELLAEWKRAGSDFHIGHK
# In all, about 390,000 compounds went through this assay and about 4,000 (1%) were called active. This list was built around the results that the source calls inconclusive (neither active nor inactive); the mix of calls is not that of the screen. Calls come from the whole dose curve; as a rule, active = well fitted inhibition curve with a large enough effect; inconclusive = small, poorly fitted or top-dose-only effect, or another doubt; inactive = no such curve, though single readings can be large or run the other way. A potency beside an inconclusive call is a rough fit, not a confirmed value.
# Molecular target: DNA polymerase iota (Homo sapiens) (UniProt Q9UNA4)
# Experiment: qHTS for Inhibitors of Polymerase Iota
# Conditions: Pol iota fluorescent replication assay, 10 min; series mostly up to 115 µM
# Procedure, shortened: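 Pol iota at 10 nM preincubated 15 min with compounds at room temperature; reaction started with fluorescent substrate, 50 nM final. Fluorescence read kinetically at 0 and 10 min; buffer-only wells as negative control.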
# Potency is the fitted concentration of half-maximal effect.
row,SMILES,Potency
1,NC(=O)c1nsc(C(=O)N(c2ccccc2)C(C(=O)NCC2CCCO2)c2ccc(F)cc2)c1N (stereo not drawn),"inconclusive: 56.2 µM [inhibitor, partial curve, poor fit]"
2,Cc1c(Br)c([N+](=O)[O-])nn1CC(=O)N1CCc2ccccc21,inactive
3,CC(=O)N1C(Nc2ccc(Cl)cc2)CCN1c1ccccc1 (stereo not drawn),"inconclusive: 31.6 µM [inhibitor, single point]"
4,CC(=O)c1c(C)[nH]c(C(=O)OCC(=O)Nc2ncc(Cl)c(C)c2Cl)c1C,"inconclusive: 31.6 µM [inhibitor, partial curve, poor fit]"
5,CC(C)c1nnc(NC(=O)CCC(=O)N2CCN(Cc3ccccc3)CC2)s1,"inconclusive: 3.16 µM [inhibitor, single point]"
6,CSCC[C@H](NC(=O)N1CCn2c1nc1ccccc12)C(=O)NCc1ccc(F)cc1,"inconclusive: 50.1 µM [inhibitor, partial curve, poor fit]"
7,COC(=O)c1c(NC(=O)COc2cc(C)c(Cl)c(C)c2)sc2c1CCCC2,"inconclusive: 89.1 µM [inhibitor, single point]"
8,COc1ccc(C(=O)Nc2ccc(OCc3cc(=O)n4ccccc4n3)cc2)cc1,"inconclusive: 89.1 µM [inhibitor, single point]"
9,Cc1ccccc1OCC(=O)N/N=C1\SCC(=O)N1Cc1ccccc1,"inconclusive: 89.1 µM [inhibitor, single point]"
10,CCN1C(=O)c2ccc(C(=O)O)cc2C1=O,"inconclusive: 2.82 µM [inhibitor, full curve, poor fit]"
11,O=C(O)C1CCCC1,"inconclusive: 50.1 µM [inhibitor, partial curve, poor fit]"
12,N#C/C(=C\c1ccc(-c2ccc(F)cc2F)o1)c1nc2ccccc2[nH]1,"inconclusive: 100 µM [inhibitor, single point]"
13,COc1ccc(CNC(=O)COC(=O)c2ccc(OCc3c(C)noc3C)cc2)cc1OC,inactive
14,CCOc1cccc(CNc2ccc(O)cc2)c1OCc1ccccc1Cl,active: 8.91 µM
15,COCCCNC(=O)CSc1nc2ccccc2c(=O)n1Cc1ccco1,inactive
16,CC(=O)Nc1ccc(NC(=O)CCc2nc3sc4c(c3c(=O)[nH]2)CCCC4)cc1,active: 39.8 µM
17,Cc1cc(C)cc(NC(=O)CN(C)S(=O)(=O)c2ccc3[nH]c4c(c3c2)CCCC4)c1,inactive
18,Cc1cn(C2CC3OCC(NC(=O)C(NC(=O)OC(C)(C)C)C(C)OCc4ccccc4)C3O2)c(=O)[nH]c1=O (stereo not drawn),inactive
19,Cc1ccc(NC(=O)CCNS(=O)(=O)c2ccc3[nH]c(=O)oc3c2)cc1C,"inconclusive: 39.8 µM [inhibitor, partial curve, poor fit]"
20,CC(=O)N1CCN(c2ccc(NCc3cccs3)cc2)CC1,"inconclusive: 39.8 µM [inhibitor, partial curve, poor fit]"
21,COc1cc(CCCN2CCNC[C@@H]2C(C)O)cc(OC)c1OC (stereo partly drawn),"inconclusive: 44.7 µM [inhibitor, single point]"
22,COc1ccccc1/C=C/C=N/N1CCN(c2ccccn2)CC1,"inconclusive: 12.6 µM [inhibitor, partial curve, poor fit]"

# Part of the list above in order of heavy-atom count, largest number first.
row,SMILES,Potency
6,CSCC[C@H](NC(=O)N1CCn2c1nc1ccccc12)C(=O)NCc1ccc(F)cc1,"inconclusive: 50.1 µM [inhibitor, partial curve, poor fit]"
19,Cc1ccc(NC(=O)CCNS(=O)(=O)c2ccc3[nH]c(=O)oc3c2)cc1C,"inconclusive: 39.8 µM [inhibitor, partial curve, poor fit]"
4,CC(=O)c1c(C)[nH]c(C(=O)OCC(=O)Nc2ncc(Cl)c(C)c2Cl)c1C,"inconclusive: 31.6 µM [inhibitor, partial curve, poor fit]"

# Next part:

row,SMILES,Potency
1,COc1ccc2cc(CN(CC3CCCO3)C(=S)NCc3ccco3)c(=O)[nH]c2c1 (stereo not drawn),"inconclusive: 50.1 µM [inhibitor, partial curve, poor fit]"
2,CCN(Cc1ccc(OC)c(F)c1)C(=O)CCl,"inconclusive: 100 µM [inhibitor, single point]"
3,O=C(Cn1cnc2c(nnn2Cc2ccccc2F)c1=O)N1CCN(c2ccccc2)CC1,"inconclusive: 89.1 µM [inhibitor, single point]"
4,CCN=C1S/C(=C\c2ccc(-c3cccc(C(=O)O)c3)o2)C(=O)N1CC,"inconclusive: 11.2 µM [inhibitor, full curve]"
5,O=C(Nc1ccc2c(c1)N(C1CCCC1)C(=O)c1ccccc1S2)c1cccc(F)c1,inactive
6,SCc1nc2ccccc2[nH]1,inactive
7,CCOc1ccccc1CNC(=O)CCc1cn(Cc2ccc(Cl)cc2)c2ccccc12,inactive
8,COc1c(N2CCN(C(=S)NCc3ccccc3)C(C)C2)c(F)cc2c(=O)c(C(=O)O)cn(C3CC3)c12 (stereo not drawn),active: 15.8 µM
9,O=C(O)Cn1nnc(-c2ccc(OCc3ccccc3)cc2)n1,inactive
10,Cn1c(=O)[nH]c(=O)c2c1nc(N1CCN(Cc3ccccc3)CC1)n2CCCc1ccccc1,"inconclusive: 89.1 µM [inhibitor, single point]"
11,O=C(Nc1ccccc1)c1ccccc1NC(=O)c1ccccc1[N+](=O)[O-],inactive
12,CCN(C(=O)COC(=O)c1cccnc1SC)C1CCCCC1,inactive
13,COc1ccc(CN2C(=O)c3cccnc3C2Nc2ccc(OC)c(Cl)c2)cc1 (stereo not drawn),"inconclusive: 3.16 µM [inhibitor, full curve, poor fit]"
14,CC(C)(C)N/N=C/c1cc(Cl)cc([N+](=O)[O-])c1O,inactive
15,CCOc1ccc(Cn2c(O)cc(=O)[nH]c2=O)cc1,"inconclusive: 15.8 µM [inhibitor, partial curve]"
16,Cc1ccc2sc(N(CCCN(C)C)C(=O)CN3C(=O)c4ccccc4C3=O)nc2c1C,"inconclusive: 79.4 µM [inhibitor, partial curve, poor fit]"
17,COc1ccc(C(=O)Nc2ccccc2C(=O)O)cc1NC(=O)C(c1ccccc1)c1ccccc1,inactive
18,COc1cccc2sc3cc(NCC[C@@H]4CCCN4C)ccc3c(=O)c12,"inconclusive: 44.7 µM [inhibitor, partial curve, poor fit]"
19,Cn1c2c(c3cnc4cc(Cl)ccc4c31)CNCC2,inactive
20,CN(C)c1ccc(C2CNC(c3ccc(Cl)c([N+](=O)[O-])c3)c3[nH]c4ccccc4c32)cc1 (stereo not drawn),"inconclusive: 15.8 µM [inhibitor, single point]"
21,CC1(C)CC(=O)c2c(O)c(-c3ccccc3)c(=O)n(-c3ccccc3)c2C1,"inconclusive: 89.1 µM [inhibitor, partial curve, poor fit]"
